# In the supplement of paper PMC7646827:
# Repeats are few or missing, and single values can be far off.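 All cells are established human bladder cancer lines, one of them grown from a patient-derived xenograft. Viability was read by a luminescent ATP assay as percent inhibition versus vehicle over a seven-point dilution series; the paper calls scores above 59 very active, 30–59 active, 21–29 semi-active, 9–20 low active and below 9 inactive.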
# Key:
# Experiment in all cases: drug sensitivity score DSS3 (score 0-100); higher = more sensitive; extreme values may be limits of the assay
# Conditions in all cases: culture: 3D, ultra-low attachment; treatment time: 5 days
# UM-UC-15 = tested on: UM-UC-15
# SW780 = tested on: SW780
# UM-UC-6 = tested on: UM-UC-6
# UM-UC-17 = tested on: UM-UC-17
# T-24 = tested on: T-24
# J82 = tested on: J82
# UM-UC-9 = tested on: UM-UC-9
# TCCSUP = tested on: TCCSUP
# UM-UC-14 = tested on: UM-UC-14
# SCaBER = tested on: SCaBER
# UM-UC-5 = tested on: UM-UC-5
# UM-UC-12 = tested on: UM-UC-12
# BC8149 = tested on: BC8149
# 5637 = tested on: 5637
# UM-UC-1 = tested on: UM-UC-1
# UM-UC-18 = tested on: UM-UC-18
# UM-UC-3 = tested on: UM-UC-3
SMILES,drug sensitivity score DSS3 (UM-UC-15),drug sensitivity score DSS3 (SW780),drug sensitivity score DSS3 (UM-UC-6),drug sensitivity score DSS3 (UM-UC-17),drug sensitivity score DSS3 (T-24),drug sensitivity score DSS3 (J82),drug sensitivity score DSS3 (UM-UC-9),drug sensitivity score DSS3 (TCCSUP),drug sensitivity score DSS3 (UM-UC-14),drug sensitivity score DSS3 (SCaBER),drug sensitivity score DSS3 (UM-UC-5),drug sensitivity score DSS3 (UM-UC-12),drug sensitivity score DSS3 (BC8149),drug sensitivity score DSS3 5637,drug sensitivity score DSS3 (UM-UC-1),drug sensitivity score DSS3 (UM-UC-18),drug sensitivity score DSS3 (UM-UC-3)
COc1cc2c(cc1OC(C)C)[C@H](c1ccc(Cl)cc1)N(c1ccc(N(C)C[C@H]3CC[C@H](N4CCN(C)C(=O)C4)CC3)cc1)C(=O)C2 [NVP-CGM097] (max dose 10000 nM),0,0.121,0,0,0.678,0,0,0.155,0,1.48,0,4.86,0,0.929,0,0.0552,
CCN(C)S(=O)(=O)Nc1ccc(F)c(C(=O)c2c[nH]c3ncc(-c4cnc(C5CC5)nc4)cc23)c1F [PLX7904] (max dose 10000 nM),24.7,0,0,0,0,0,0,0.0636,0.0101,0,0,0,0,0,0,0,
Nc1cc(F)ccc1NC(=O)/C=C/c1cnn(C/C=C/c2ccccc2)c1 [RGFP966] (max dose 10000 nM),0,0,0,0,0,0,0,0.00824,0,0,0,0,0,0,0,0.138,
CN(C)C(=O)c1cc2cnc(Nc3ccc(N4CCNCC4)cn3)nc2n1C1CCCC1 [Ribociclib] (max dose 10000 nM),0,0,0,0.734,0,0,0,2.19,0.316,0,0,0,0,0,0,0.0398,
Cn1cc(-c2ccc3nnc(Sc4ccc5ncccc5c4)n3n2)cn1 [SGX-523] (max dose 5000 nM),3.12,5.03,2.82,5.26,0,0,3.83,10.2,1.74,5.41,2.08,6.36,8.92,11.3,3.82,4.94,
N#C/C(=C(/N)Sc1ccc(N)cc1)c1ccccc1C(F)(F)F [SL-327] (max dose 10000 nM),0,0,0,0,0,0,0,0,0,0.0177,0,0,0,7.2e-07,0,0,
C/C(=N\NC(=O)c1cccc(S(=O)(=O)N2CCOCC2)c1)c1cc(Cl)ccc1O [SP2509] (max dose 10000 nM),0,0,0,0.383,,0,0.00194,1.14,,0,0,0,0.0794,0,0,0,0.332
CNC(=O)CN1CCC(Oc2cc3c(Nc4cccc(Cl)c4F)ncnc3cc2OC)CC1 [Sapitinib] (max dose 10000 nM),0,0,8.37,0,3.4,0.138,3.42,4.27,3.27,23.2,0,20.8,4.34,21,1.1,11.2,
Nc1ccc(S(=O)(=O)Nc2ccnn2-c2ccccc2)cc1 [Sulfaphenazole] (max dose 10000 nM),0,0,0,0,0,0,0,0.986,0.136,0.897,0,0,2.21,0,0,0,
CCc1ccc(Cc2ccc3c(c2)[C@]2(OC3)O[C@H](CO)[C@@H](O)[C@H](O)[C@H]2O)cc1 [Tofogliflozin(CSG 452)] (max dose 10000 nM),2.04,0,11.3,0.559,1.06,0.0327,0,13.5,12.6,0,0,0,0.274,8.75,8.28,6.14,
NC(=O)c1cccc(-c2cccc(OC(=O)NC3CCCCC3)c2)c1 [URB597] (max dose 10000 nM),0,0,0,0,0.0854,0,0.0199,0.99,0,1.38,0,0.314,0.548,0.802,0,0.996,
Oc1nc(-c2ccc(C(F)(F)F)cc2)nc2c1CSCC2 [XAV-939] (max dose 10000 nM),,,,2.32,,,,10.7,20.5,,,2.88,11.6,30,4.05,20.1,0
COc1cc(OC)cc(N(CCNC(C)C)c2ccc3ncc(-c4cnn(C)c4)nc3c2)c1 [erdafitinib] (max dose 10000 nM),19.2,0,0,0,0,0,0,11.3,0,0,0,0,3.45,0,0,0,

# Some values from above.
# Oc1nc(-c2ccc(C(F)(F)F)cc2)nc2c1CSCC2 [XAV-939] (max dose 10000 nM) – drug sensitivity score DSS3 (UM-UC-1): 4.05
# COc1cc(OC)cc(N(CCNC(C)C)c2ccc3ncc(-c4cnn(C)c4)nc3c2)c1 [erdafitinib] (max dose 10000 nM) – drug sensitivity score DSS3 (BC8149): 3.45
